Results are given in words; binding and its absence hold for the method and conditions named. A result given as binding can be weak or reduced; the word gives no strength. For some assays here: Sequences can lack the tags named with a protein. For some assays here: In cells and extracts the contact can be indirect.
What was measured:
[1] = target: recombinant GluTR of the cross-linking experiment (Arabidopsis thaliana); experiment: cross-linking; recombinant proteins mixed pairwise, 1 mM DSSO in PBS, 1 h, room temperature, trypsin, LC-MS/MS, MaxQuant; both purified
[2] = target: recombinant GluTR of the cross-linking experiment (Arabidopsis thaliana); experiment: cross-linking; all three recombinant proteins (GluTR, GBP, GSAAT) mixed together, 1 mM DSSO in PBS, 1 h, room temperature, trypsin, LC-MS/MS, MaxQuant; both purified
[3] = target: recombinant GST-GluTR (Arabidopsis thaliana); experiment: pull-down; 50 µg recombinant GST-GluTR as bait with 1% n-DM solubilised plastid lysates (100 µg chlorophyll) of the wild type and of a 35S:GSA1 line, overnight at 4°C, glutathione-Sepharose 4B, eluted with 10 mM reduced glutathione, immunoblot; only the target purified
[4] = target: recombinant 6xHis-GSAAT (Arabidopsis thaliana); experiment: pull-down; 50 µg recombinant His-GSAAT as bait with DM-solubilised wild-type plastid lysate (100 µg chlorophyll) in binding buffer (25 mM Tris-HCl pH 7.8, 150 mM NaCl, 5 mM MgCl2, 10% glycerol), Ni-NTA agarose, 4°C, eluted with imidazole, immunoblot; only the target purified
[5] = target: recombinant GST-GluTR (Arabidopsis thaliana); experiment: pull-down; in vitro GST pull-down: recombinant GST-GluTR with purified 6xHis-GBP and 6xHis-GSAAT together, binding buffer, overnight at 4°C, immunoblot; both purified

B1: recombinant GBP of the cross-linking experiment (protein, UniProt Q9LU39 43-317)
chain: SVSTTLDTPATASTHKPFPAEVSRSIMELSSVGTLSTLTHDGWPLGVGVRFAVDKDGTPVLCLNRSVSPDKRSALHVQLEQCGLRTPQCTIQGSIGRPGDDTVLKRLSATWREKFGEEVKEDSLYVVAVDRVLQMEDFMEDGIWVASSDYKNASPDPLRDIAEDIVNQINANNMEDIFRFCNVYVDLDFVVSETKMIWMDRLGFDLRVWSPRGVYDVRIPFPMEVTDEKGAKSSFNGMSQLAWEVEKSYCPADFNKVKLLKQVVGSSHSHKGGGQ
- binding [1]: binds
- binding [2]: binds

B2: GBP of Arabidopsis plastids (protein, UniProt Q9LU39 43-317)
chain: SVSTTLDTPATASTHKPFPAEVSRSIMELSSVGTLSTLTHDGWPLGVGVRFAVDKDGTPVLCLNRSVSPDKRSALHVQLEQCGLRTPQCTIQGSIGRPGDDTVLKRLSATWREKFGEEVKEDSLYVVAVDRVLQMEDFMEDGIWVASSDYKNASPDPLRDIAEDIVNQINANNMEDIFRFCNVYVDLDFVVSETKMIWMDRLGFDLRVWSPRGVYDVRIPFPMEVTDEKGAKSSFNGMSQLAWEVEKSYCPADFNKVKLLKQVVGSSHSHKGGGQ
- binding [3]: binds
- binding [4]: binds

B3: recombinant 6xHis-GBP (protein, UniProt Q9LU39 43-317)
chain: SVSTTLDTPATASTHKPFPAEVSRSIMELSSVGTLSTLTHDGWPLGVGVRFAVDKDGTPVLCLNRSVSPDKRSALHVQLEQCGLRTPQCTIQGSIGRPGDDTVLKRLSATWREKFGEEVKEDSLYVVAVDRVLQMEDFMEDGIWVASSDYKNASPDPLRDIAEDIVNQINANNMEDIFRFCNVYVDLDFVVSETKMIWMDRLGFDLRVWSPRGVYDVRIPFPMEVTDEKGAKSSFNGMSQLAWEVEKSYCPADFNKVKLLKQVVGSSHSHKGGGQ
- binding [5]: binds

Reference: PMC9614494
